In the supplement of paper PMC10849652:
Some of the results follow.

Sequences of proteins named here, by UniProt entry; tags and fusion partners are left off. A change or cut given only in a name is not applied to a line headed by its entry.
UniProt Q00169: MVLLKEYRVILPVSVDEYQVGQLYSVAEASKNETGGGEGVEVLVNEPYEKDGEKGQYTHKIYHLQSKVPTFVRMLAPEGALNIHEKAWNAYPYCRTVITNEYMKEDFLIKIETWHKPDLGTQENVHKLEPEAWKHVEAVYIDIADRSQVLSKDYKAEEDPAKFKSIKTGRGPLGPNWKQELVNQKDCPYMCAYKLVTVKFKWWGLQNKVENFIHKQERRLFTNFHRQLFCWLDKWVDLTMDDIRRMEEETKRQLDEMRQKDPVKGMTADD
UniProt Q9NWS0, whole entry, looked up: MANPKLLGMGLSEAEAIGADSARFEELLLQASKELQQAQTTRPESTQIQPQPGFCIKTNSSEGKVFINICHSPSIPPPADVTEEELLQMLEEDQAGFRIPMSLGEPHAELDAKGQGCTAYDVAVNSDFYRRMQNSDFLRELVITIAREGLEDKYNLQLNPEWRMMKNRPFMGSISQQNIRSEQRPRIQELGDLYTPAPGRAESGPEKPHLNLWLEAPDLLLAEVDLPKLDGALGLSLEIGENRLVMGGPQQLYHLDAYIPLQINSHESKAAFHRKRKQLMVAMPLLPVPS
UniProt O00264: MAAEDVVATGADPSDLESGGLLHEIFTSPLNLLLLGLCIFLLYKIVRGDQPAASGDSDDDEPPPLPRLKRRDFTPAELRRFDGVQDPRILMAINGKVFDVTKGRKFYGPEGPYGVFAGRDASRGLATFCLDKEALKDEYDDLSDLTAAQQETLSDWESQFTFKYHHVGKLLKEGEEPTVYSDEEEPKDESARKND
UniProt P37287: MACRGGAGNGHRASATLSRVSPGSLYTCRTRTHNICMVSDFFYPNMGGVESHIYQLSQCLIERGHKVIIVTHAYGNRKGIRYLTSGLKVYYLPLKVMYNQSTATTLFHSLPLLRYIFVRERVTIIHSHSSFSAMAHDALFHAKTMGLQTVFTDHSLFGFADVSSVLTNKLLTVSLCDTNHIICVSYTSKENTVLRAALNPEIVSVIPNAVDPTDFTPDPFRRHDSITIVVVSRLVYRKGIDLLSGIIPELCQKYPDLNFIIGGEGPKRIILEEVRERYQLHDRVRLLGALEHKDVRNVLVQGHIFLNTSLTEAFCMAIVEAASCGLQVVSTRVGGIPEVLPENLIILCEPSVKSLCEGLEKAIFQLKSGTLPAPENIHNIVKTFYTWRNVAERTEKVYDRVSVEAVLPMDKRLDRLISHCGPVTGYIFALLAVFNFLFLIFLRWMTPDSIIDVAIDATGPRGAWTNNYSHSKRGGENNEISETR
UniProt O43175: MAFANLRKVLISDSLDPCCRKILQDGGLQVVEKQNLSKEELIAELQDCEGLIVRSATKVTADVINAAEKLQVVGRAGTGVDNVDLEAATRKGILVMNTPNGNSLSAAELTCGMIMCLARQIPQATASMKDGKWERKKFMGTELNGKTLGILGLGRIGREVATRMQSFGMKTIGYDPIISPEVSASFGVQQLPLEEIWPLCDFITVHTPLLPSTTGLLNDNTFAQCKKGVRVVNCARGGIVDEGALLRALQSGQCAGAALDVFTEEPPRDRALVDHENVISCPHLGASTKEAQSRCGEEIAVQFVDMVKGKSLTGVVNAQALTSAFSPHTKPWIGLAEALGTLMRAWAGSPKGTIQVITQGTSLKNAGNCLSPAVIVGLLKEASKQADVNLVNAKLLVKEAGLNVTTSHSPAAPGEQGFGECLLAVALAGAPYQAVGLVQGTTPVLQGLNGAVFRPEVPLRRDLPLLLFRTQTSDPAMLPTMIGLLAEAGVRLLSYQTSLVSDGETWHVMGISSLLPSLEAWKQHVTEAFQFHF
UniProt Q8TBX8: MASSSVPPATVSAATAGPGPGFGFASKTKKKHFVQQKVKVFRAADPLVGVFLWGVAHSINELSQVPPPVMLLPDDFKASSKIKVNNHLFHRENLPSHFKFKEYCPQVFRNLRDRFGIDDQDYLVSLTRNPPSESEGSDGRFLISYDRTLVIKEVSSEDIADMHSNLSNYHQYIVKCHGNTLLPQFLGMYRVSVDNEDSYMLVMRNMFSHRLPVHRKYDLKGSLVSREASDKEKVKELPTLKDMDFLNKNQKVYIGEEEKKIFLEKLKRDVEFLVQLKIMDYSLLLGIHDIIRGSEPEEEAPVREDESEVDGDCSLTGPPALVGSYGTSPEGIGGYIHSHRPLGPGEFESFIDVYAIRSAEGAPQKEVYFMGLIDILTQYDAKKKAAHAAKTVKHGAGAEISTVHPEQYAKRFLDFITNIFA
UniProt Q13526, whole entry, looked up: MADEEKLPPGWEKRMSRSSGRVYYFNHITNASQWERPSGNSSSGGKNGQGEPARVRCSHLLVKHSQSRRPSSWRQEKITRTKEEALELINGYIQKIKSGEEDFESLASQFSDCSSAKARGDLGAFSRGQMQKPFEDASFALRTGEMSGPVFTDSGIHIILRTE
UniProt P27986, whole entry, looked up: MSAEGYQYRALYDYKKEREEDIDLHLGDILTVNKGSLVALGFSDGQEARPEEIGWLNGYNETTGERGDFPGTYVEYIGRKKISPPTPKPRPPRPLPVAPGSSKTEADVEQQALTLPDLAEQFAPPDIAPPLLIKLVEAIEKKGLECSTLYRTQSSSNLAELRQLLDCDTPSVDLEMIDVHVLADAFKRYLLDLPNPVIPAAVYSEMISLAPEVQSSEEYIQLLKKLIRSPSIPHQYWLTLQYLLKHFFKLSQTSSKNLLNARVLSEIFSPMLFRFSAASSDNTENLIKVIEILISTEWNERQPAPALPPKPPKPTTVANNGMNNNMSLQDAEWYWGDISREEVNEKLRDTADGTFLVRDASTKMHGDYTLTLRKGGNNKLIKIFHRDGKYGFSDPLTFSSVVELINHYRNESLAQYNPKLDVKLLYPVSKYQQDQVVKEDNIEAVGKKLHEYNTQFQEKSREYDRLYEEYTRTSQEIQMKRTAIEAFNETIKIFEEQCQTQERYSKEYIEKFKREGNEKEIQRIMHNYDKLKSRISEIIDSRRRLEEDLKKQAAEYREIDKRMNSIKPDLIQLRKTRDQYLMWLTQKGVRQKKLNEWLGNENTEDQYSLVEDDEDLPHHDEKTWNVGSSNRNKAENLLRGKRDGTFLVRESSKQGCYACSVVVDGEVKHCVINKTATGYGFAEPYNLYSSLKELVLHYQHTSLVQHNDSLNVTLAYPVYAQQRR

What was measured:
Experiment in all cases: log2 fold change, soluble protein after heating vs DMSO (PISA); higher = thermal stabilisation; K562 lysate, 10 uM; active = over 0.2 and 3.5 SD of the protein, either way, in both replicates (recomputed)
[1] = compound: C=CC(=O)N1CCC[C@@H](n2nc(-c3ccc(Oc4ccccc4)cc3)c3c(N)ncnc32)C1 [ibrutinib]
Method in brief: (§1)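 Dounce homogenisation of K562 pellets in PBS pH 7.4 with 1 mM MgCl2 produced a crude extract, used at 1 mg/mL protein. Exposure to 10 μM compound lasted 30 min, and aliquots were then heated for 3 min across 48°C-58°C, pooled and brought to 0.5% NP-40 at 4°C. The supernatant after 21,000xg for 90 min was quantified by TMTpro 16plex LC-MS/MS with channel sums equalised. Duplicate values are given as log-two fold change in thermal stability relative to solvent controls.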

[2] = compound: CC(=O)c1cnc2ccc(-c3cc(Cl)c(O)c(Cl)c3)nc2c1N[C@H]1CC[C@H](CN(C)C)CC1
Method in brief: as §1

[3] = compound: CC(C)(C)Cn1c(N)nc2ccc(-c3[nH]c(C(C)(C)C)nc3-c3ccc(F)cc3)nc21 [ralimetinib]
Method in brief: as §1

[4] = compound: CC(C)(O)CC(=O)NCCn1ccc2ncnc(Nc3ccc(Oc4cccc(C(F)(F)F)c4)c(Cl)c3)c21
Method in brief: as §1

[5] = compound: CC(C)C1=C2N=C(C=C(N2N=C1)NCC3=CC=CC=C3)NCCCCCCN
Method in brief: as §1

[6] = compound: CC1=C(C(CC(=O)N1)C2=CC=C(C=C2)C(F)(F)F)C(=O)NC3=C(C=C4C(=C3)C=NN4)F
Method in brief: as §1

[7] = compound: CC1=C(C2=C(C=C1)C(=O)C3=CC=CC=C3N2CCCN)C
Method in brief: as §1

[8] = compound: CC1=C(C=C(C=C1)NC(=O)C2=CC(=CC=C2)C(C)(C)C#N)NC3=CC4=C(C=C3)N=CN(C4=O)C
Method in brief: as §1

[9] = compound: CC1=C(C=C(C=C1)NC(=O)C2=CC(=CC=C2)N(C)C)NC(=O)C3=CC=C(C=C3)O
Method in brief: as §1

[10] = compound: CC1=CC=C(C=C1)SC2=C3C=C(SC3=CN=C2)C(=O)N
Method in brief: as §1

[11] = compound: CCCS(=O)(=O)Nc1ccc(F)c(C(=O)c2c[nH]c3ncc(-c4ccc(Cl)cc4)cc23)c1F [vemurafenib]
Method in brief: as §1

[12] = compound: CCCS(=O)(=O)Nc1ccc(F)c(C(=O)c2c[nH]c3ncc(Cl)cc23)c1F
Method in brief: as §1

[13] = compound: CCN(CCCOc1ccc2c(Nc3cc(CC(=O)Nc4cccc(F)c4)[nH]n3)ncnc2c1)CCOP(=O)(O)O [barasertib]
Method in brief: as §1

[14] = compound: CC[C@@H]1C(=O)N(C)c2cnc(Nc3ccc(C(=O)NC4CCN(C)CC4)cc3OC)nc2N1C1CCCC1
Method in brief: as §1

[15] = compound: CC[C@@H]1C(=O)N(C)c2cnc(Nc3ccc(C(=O)N[C@H]4CC[C@H](N5CCN(CC6CC6)CC5)CC4)cc3OC)nc2N1C(C)C [volasertib]
Method in brief: as §1

[16] = compound: CCn1c(C(=O)N(C2CC2)C2CC2)cc2c3c(ncn3C)c(Nc3cc(C)n(C)n3)nc21
Method in brief: as §1

[17] = compound: CCn1cc(-c2ccnc3[nH]c(-c4cccc(CN(C)C)c4)cc23)c(-c2ccc(NC(=O)N(C)C)cc2)n1
Method in brief: as §1

[18] = compound: CN1CCC(CNc2ccc3ncc(-c4cccc(OC(F)(F)F)c4)n3n2)CC1
Method in brief: as §1

[19] = compound: CN1CCN(CCOc2cc(OC3CCOCC3)c3c(Nc4c(Cl)ccc5c4OCO5)ncnc3c2)CC1 [saracatinib]
Method in brief: as §1

[20] = compound: CN1CCN(c2nc(C3=C(c4c[nH]c5ccccc45)C(=O)NC3=O)c3ccccc3n2)CC1 [sotrastaurin]
Method in brief: as §1

Row | Target | log2 fold change [1] | log2 fold change [2] | log2 fold change [3] | log2 fold change [4] | log2 fold change [5] | log2 fold change [6] | log2 fold change [7] | log2 fold change [8] | log2 fold change [9] | log2 fold change [10] | log2 fold change [11] | log2 fold change [12] | log2 fold change [13] | log2 fold change [14] | log2 fold change [15] | log2 fold change [16] | log2 fold change [17] | log2 fold change [18] | log2 fold change [19] | log2 fold change [20]
1 | PITPNA (UniProt Q00169) | inactive: -0.003 | inactive: -0.008 | inactive: 0.012 | inactive: -0.004 | inactive: -0.013 | inactive: 0.019 | inactive: -0.014 | inactive: 0.004 | inactive: -0.001 | inactive: 0.005 | inactive: -0.034 | inactive: -0.002 | inactive: -0.005 | inactive: -0.038 | inactive: 0.024 | inactive: 0.005 | inactive: 0.141 | inactive: -0.114 | inactive: 0.005 | inactive: 0.011
2 | PIH1D1 (UniProt Q9NWS0) | inactive: -0.011 | inactive: 0.003 | inactive: 0 | inactive: -0.009 | inactive: -0.023 | inactive: 0.006 | inactive: -0.007 | inactive: 0.001 | inactive: 0.012 | inactive: -0.005 | inactive: -0.008 | inactive: 0.014 | inactive: 0.067 | inactive: -0.01 | inactive: -0.004 | inactive: 0.006 | inactive: 0.022 | inactive: -0.021 | inactive: -0.032 | inactive: -0.009
3 | PGRMC1 (UniProt O00264) | inactive: 0.057 | inactive: 0.013 | inactive: 0.008 | inactive: -0.01 | inactive: -0.035 | inactive: 0.004 | inactive: 0.022 | inactive: -0.066 | inactive: -0.007 | inactive: -0.005 | inactive: -0.009 | inactive: -0.043 | inactive: 0.019 | inactive: 0.015 | inactive: 0.008 | inactive: 0.021 | inactive: -0.045 | inactive: 0.071 | inactive: -0.017 | inactive: -0.003
4 | PIGA (UniProt P37287) | inactive: 0.067 | inactive: 0.07 | inactive: 0.053 | inactive: -0.013 | inactive: 0.043 |  | inactive: -0.016 | inactive: 0.007 | inactive: -0.028 | inactive: 0.005 | inactive: 0.073 | inactive: 0 | inactive: 0.011 | inactive: 0.084 | inactive: 0.109 | inactive: -0.081 | inactive: 0.113 | inactive: 0.02 | inactive: 0.04 | inactive: 0.007
5 | PHGDH (UniProt O43175) | inactive: 0.03 | inactive: 0.021 | inactive: 0.013 | inactive: 0.028 | inactive: 0.012 | inactive: -0.003 | inactive: 0.013 | inactive: -0.004 | inactive: -0.012 | inactive: 0.029 | inactive: -0.005 | inactive: -0.001 | inactive: -0.049 | inactive: 0.02 | inactive: -0.025 | inactive: 0.016 | inactive: 0.098 | inactive: -0.051 | inactive: -0.012 | inactive: -0.027
6 | PIP4K2C (UniProt Q8TBX8) | inactive: 0.012 | inactive: 0.277 | inactive: 0.039 | inactive: -0.055 | inactive: -0.055 | inactive: -0.047 | inactive: -0.027 | inactive: 0.03 | inactive: -0.027 | inactive: -0.031 | inactive: 0.039 | inactive: -0.028 | inactive: -0.045 | active: 0.463 | inactive: 0.206 | inactive: 0.103 | inactive: -0.114 | inactive: 0.225 | inactive: -0.01 | inactive: -0.019
7 | PIN1 (UniProt Q13526) | inactive: -0.013 | inactive: 0.004 | inactive: 0.013 | inactive: -0.033 | inactive: 0.014 | inactive: -0.009 | inactive: 0.025 | inactive: 0 | inactive: 0.003 | inactive: -0.065 | inactive: 0.023 | inactive: 0.008 | inactive: -0.02 | inactive: 0.028 | inactive: -0.007 | inactive: -0.006 | inactive: -0.035 | inactive: 0.014 | inactive: -0.022 | inactive: -0.053
8 | PIK3R1 (UniProt P27986) | inactive: -0.018 | inactive: 0.302 | inactive: -0.003 | inactive: -0.06 | inactive: -0.008 | inactive: -0.006 | inactive: 0.027 | inactive: -0.013 | inactive: -0.006 | inactive: 0.019 | inactive: 0.011 | inactive: -0.01 | inactive: -0.005 | inactive: 0.172 | inactive: 0.016 | inactive: 0.023 | inactive: -0.037 | active: 0.365 | inactive: 0.025 | inactive: 0.056
